{"source": "patent US20050244335A1", "about": "“Methods and compositions related to increasing antitumor activity of chemotherapeutic agents” (priority 2004, published 2005)", "key": {"[1]": {"test_system": "human breast cancer MCF-7 xenografts", "assay": "In vivo chemotherapy, breast cancer MCF-7 xenograft model in nude mice", "settings": "MCF-7 model; agent alone", "from_the_text": "(§1) Cell Culture. […] All media contained 1% penicillin-streptomycin.\n(§2) Data and Statistical Analysis."}, "[2]": {"test_system": "human breast cancer MDA-MB-468 xenografts", "assay": "In vivo chemotherapy, breast cancer MDA-MB-468 xenograft model in nude mice", "settings": "MDA-MB-468 model", "from_the_text": "as §1, §2"}, "CD-1 mice": {"test_system": "CD-1 mice", "settings": "DEX given post carboplatin", "procedure": "sing a protocol similar to the above survival study, the effects of DEX on chemotherapy-induced bone marrow toxicity were studied in male CD-1 mice. DEX (s.c., 0.1 mg/mouse/day for 5 days) was given prior to (day −4-0) or after (day 0 to 4) a single i.p. dose of carboplatin (600 mg/m^2 or 200 mg/kg). On days −4, 0, 3, 7, 14, peripheral blood samples (60 μL) were obtained from postorbital venous plexus using a microcapillary tube coated with 5% ethylenediaminetetraacetic acid and cell counts were obtained using a Coulter counter. Wright's stained peripheral blood smears were examined by light microscopy and the percentage of lymphocytes, granulocytes and monocytes were recorded.\nThe significance of the differences among treated groups and controls were analyzed by ANOVA.\nTo examine possible mechanisms responsible for reduced mortality in mice pre-treated with DEX, peripheral blood counts before and after chemotherapy were determined. […] The same experimental design was used to examine the dose-schedule effects of dexamethasone prevention of neutropenia."}, "human cancer xenografts": {"test_system": "human cancer xenografts", "assay": "Six murine-human cancer xenograft models overall: efficacy and toxicity", "settings": "DEX in the human cancer models"}}, "note": "For at least one compound, name, drawing or mass did not settle the structure.", "data": [{"smiles": "C[C@@H]1C[C@H]2[C@@H]3CCC4=CC(=O)C=C[C@]4(C)[C@@]3(F)[C@@H](O)C[C@]2(C)[C@@]1(O)C(=O)CO", "note": "[DEX, dexamethasone]", "values": [{"measurement": "effect on tumor growth", "setting": "[1]", "value": "limited effects on tumor growth"}, {"measurement": "effect on tumor growth", "setting": "[2]; agent alone", "value": "no effects on tumor growth"}, {"measurement": "effect on tumor growth", "setting": "[2]; pretreatment with DEX followed by carboplatin", "value": "significantly inhibited tumor growth"}, {"measurement": "prevention of neutropenia", "setting": "CD-1 mice", "value": "had no effect"}, {"measurement": "effect on tumor growth", "setting": "human cancer xenografts", "value": "minimal effects on tumor growth"}]}]}
